{"sequences": {"note": "The chains behind the UniProt entries cited, without tags or fusion partners. Residues count along the entry.", "UniProt P21730": "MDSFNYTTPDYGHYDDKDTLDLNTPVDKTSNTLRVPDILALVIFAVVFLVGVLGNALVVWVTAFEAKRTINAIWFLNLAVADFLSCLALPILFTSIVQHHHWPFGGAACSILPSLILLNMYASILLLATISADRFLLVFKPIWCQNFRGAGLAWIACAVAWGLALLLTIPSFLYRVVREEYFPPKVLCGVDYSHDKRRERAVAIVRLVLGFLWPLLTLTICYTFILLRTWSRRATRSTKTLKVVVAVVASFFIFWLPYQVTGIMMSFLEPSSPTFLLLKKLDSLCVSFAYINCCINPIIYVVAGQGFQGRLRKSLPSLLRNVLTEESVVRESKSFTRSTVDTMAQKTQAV", "UniProt P01031, residues 678-751": "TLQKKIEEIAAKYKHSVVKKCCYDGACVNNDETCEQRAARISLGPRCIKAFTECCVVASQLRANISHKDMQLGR"}, "source": "paper doi:10.1101/2020.02.18.955021", "key": {"[1]": {"biological_target": "T1, zebrafish C5a receptor expressed on U937 cells (U937-dreC5aR) (zebrafish (Danio rerio)) (UniProt P0C7U5)", "T1 sequence": "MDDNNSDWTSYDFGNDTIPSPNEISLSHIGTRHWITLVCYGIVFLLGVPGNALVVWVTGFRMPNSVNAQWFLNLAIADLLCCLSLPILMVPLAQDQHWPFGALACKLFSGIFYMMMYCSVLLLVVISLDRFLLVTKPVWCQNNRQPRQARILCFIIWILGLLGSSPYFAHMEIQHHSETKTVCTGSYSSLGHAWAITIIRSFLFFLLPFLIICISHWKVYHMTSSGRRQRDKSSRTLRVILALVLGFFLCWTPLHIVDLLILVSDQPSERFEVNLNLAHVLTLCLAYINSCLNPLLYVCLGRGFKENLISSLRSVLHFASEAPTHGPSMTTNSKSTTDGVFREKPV", "assay": "flow cytometry on cells"}, "[2]": {"biological_target": "human C5a receptor expressed on U937 cells (U937-hsaC5aR) (human) (UniProt P21730)", "assay": "flow cytometry on cells"}}, "note": "Results are given in words; binding and its absence hold for the method and conditions named. Some entries that bind do so weakly or less than the wild type."}
{"substance": "FITC-labelled recombinant human C5a (from UniProt P01031 678-751) (ligand)", "values": [{"measurement": "binding", "setting": "[1]", "result": "no binding (tested: 10 μg/mL)"}, {"measurement": "binding", "setting": "[2]", "result": "binds"}]}
